Test results from publication PMC9884297, “Iron-sulfur clusters are involved in post-translational arginylation” (Nature Communications, 2023).
These are yes or no findings as the source states them, for the method shown. Sequences can lack the tags named with a protein.

Target: Saccharomyces cerevisiae arginine transferase (ATE1), His-tagged (S. cerevisiae) (UniProt P16639)
Experiment: SEC; 120 mL gel filtration column, 4 °C, 50 mmol/L Tris pH 7.5, 100 mmol/L KCl, 1 mmol/L DTT, 0.7 mol/L glycerol; monomer elutes at ≈60 kDa; both purified

B1: Saccharomyces cerevisiae arginine transferase (ATE1), His-tagged (enzyme, UniProt P16639 1-503)
chain: MSDRFVIWAPSMHNEPAAKCGYCHGNKGGNMDQLFALDSWAHRYMNKMDVVKIENCTIGSFVEHMDVATYDRMCNMGFRRSGKFLYKVDPLRNCCRLYTIRTAPQELNMTKELKKCISRFATRITSEDYCPAAVASSDFVGKIVNAEMNSKTFYTRFEPALYSEEKYHLFVKYQEKVHQDYNNSPKSFKRFLCDTPFGPEAVLGTQESWEQLNNWQRMKPGEKLKHMGPVHECYYYEGKLIAITVSDILPSGISSVYFIWDPDYSKWSLGKLSALRDLAIIQRTNLQYYYLGYYIEDCPKMNYKANYGAEVLDVCHSKYIPLKPIQDMISRGKLFVIGEEETKVTKELYLVDSETGRGEGFPTDNVVKYKNIAEEIYGVGGCAFKSANESALELKELYGIPYEEEDLDTIYHLKEHNGHAPNGIPNVVPGLLPLWELLDIMQSGKITDLEGRLFLFEIETEGIRPLINFYSEPPNVKKRICDVIRLFGFETCMKAVILYSEQM
**Q.** How did the binding turn out when B1 was run?
**A.** The binding was “no binding”.
